## Melanoma cell counts after drug treatment

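Human melanoma cell lines in 1,536-well plates were treated with two drugs together for 72 h, then fixed, stained and imaged. Values are the number of DAPI-stained nuclei as a percentage of the DMSO control: 100 is no effect, lower means fewer cells. Every drug was used at one fixed concentration, the higher of two screened. These are primary screening values without error estimates.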
An unselected part of the screen is shown.

Compounds and concentrations:
lapatinib, 4 µM: CS(=O)(=O)CCNCc1ccc(-c2ccc3ncnc(Nc4ccc(OCc5cccc(F)c5)c(Cl)c4)c3c2)o1
enzastaurin, 4 µM: Cn1cc(C2=C(c3cn(C4CCN(Cc5ccccn5)CC4)c4ccccc34)C(=O)NC2=O)c2ccccc21
dasatinib, 0.02 µM: Cc1nc(Nc2ncc(C(=O)Nc3c(C)cccc3Cl)s2)cc(N2CCN(CCO)CC2)n1
bexarotene, 10 µM: C=C(c1ccc(C(=O)O)cc1)c1cc2c(cc1C)C(C)(C)CCC2(C)C
tamatinib, 2 µM: COc1cc(Nc2ncc(F)c(Nc3ccc4c(n3)NC(=O)C(C)(C)O4)n2)cc(OC)c1OC
GW2580, 5 µM: COc1ccc(COc2ccc(Cc3cnc(N)nc3N)cc2OC)cc1
fludarabine, 1 µM: Nc1nc(F)nc2c1ncn2[C@@H]1O[C@H](CO)[C@@H](O)[C@@H]1O
CP-690550, 5 µM: C[C@@H]1CCN(C(=O)CC#N)C[C@@H]1N(C)c1ncnc2[nH]ccc12
GW441756, 2 µM: Cn1cc(/C=C2\C(=O)Nc3cccnc32)c2ccccc21
cediranib, 2 µM: COc1cc2c(Oc3ccc4[nH]c(C)cc4c3F)ncnc2cc1OCCCN1CCCC1

Combination,COLO 800,COLO 792,WM451Lu,WM3619,COLO 829,C32
enzastaurin + tamatinib,43.3,43.6,64.6,75.3,68.6,79.0
bexarotene + cediranib,64.2,79.2,94.2,120,84.1,110
GW2580 + cediranib,62.3,84.2,80.5,83.3,111,100
bexarotene + dasatinib,60.6,35.3,80.5,82.8,26.3,86.2
dasatinib + tamatinib,39.5,17.3,53.1,72.5,63.2,73.7
GW2580 + dasatinib,67.7,68.3,76.9,76.9,66.5,84.6
lapatinib + dasatinib,55.0,39.6,80.8,68.7,71.7,84.8
lapatinib + tamatinib,24.8,24.0,55.8,38.7,67.1,79.8
cediranib + dasatinib,40.4,28.8,68.9,53.4,57.5,79.5
fludarabine + enzastaurin,59.8,74.7,85.0,104,99.8,95.1
cediranib + CP-690550,57.1,61.3,78.9,74.7,98.1,80.2
enzastaurin + bexarotene,68.6,102,101,90.4,83.5,93.3
CP-690550 + fludarabine,64.0,55.0,78.9,77.8,84.9,102
bexarotene + fludarabine,120,59.2,93.8,81.4,85.2,78.9
GW2580 + tamatinib,45.7,60.2,94.2,48.9,93.7,125
dasatinib + CP-690550,76.9,27.6,84.7,130,60.2,74.5
bexarotene + tamatinib,80.9,43.4,68.2,69.2,83.9,97.2
fludarabine + lapatinib,60.5,49.6,98.4,83.3,84.8,117
CP-690550 + GW441756,50.3,109,96.4,90.4,115,88.2
GW441756 + enzastaurin,49.4,68.4,105,91.5,88.0,102
GW2580 + fludarabine,96.1,63.9,98.1,64.5,117,96.3
GW2580 + CP-690550,75.9,106,91.3,66.4,133,90.8
enzastaurin + dasatinib,67.6,51.1,79.0,116,65.2,85.7
tamatinib + GW441756,40.5,49.8,75.3,80.9,86.0,95.1
bexarotene + CP-690550,135,73.1,88.3,82.1,77.0,116
bexarotene + GW441756,90.6,77.4,95.7,92.0,66.1,138
fludarabine + GW441756,96.6,112,149,81.9,111,83.6
lapatinib + CP-690550,61.1,74.0,111,70.9,102,85.5
enzastaurin + CP-690550,90.2,88.5,91.9,143,110,118
bexarotene + lapatinib,46.4,64.9,77.8,57.2,51.2,71.1
fludarabine + dasatinib,54.5,29.3,58.4,73.1,60.1,80.2
dasatinib + GW441756,50.3,50.8,74.3,80.2,72.7,70.6
lapatinib + GW441756,56.3,79.0,83.7,74.6,76.0,83.2
lapatinib + GW2580,69.8,69.4,80.4,38.9,89.1,90.6
cediranib + tamatinib,58.0,27.6,74.9,84.0,78.3,91.4
tamatinib + fludarabine,52.9,50.5,84.7,76.2,97.2,84.9
GW2580 + enzastaurin,127,83.5,99.2,113,96.8,102
tamatinib + CP-690550,70.4,44.3,61.0,59.3,76.5,78.6
fludarabine + cediranib,59.0,69.4,92.5,95.2,135,93.0
cediranib + lapatinib,33.6,42.1,69.1,62.1,77.3,71.3

The first 5 entries again:

Combination,COLO 800,COLO 792,WM451Lu,WM3619,COLO 829,C32
enzastaurin + tamatinib,43.3,43.6,64.6,75.3,68.6,79.0
bexarotene + cediranib,64.2,79.2,94.2,120,84.1,110
GW2580 + cediranib,62.3,84.2,80.5,83.3,111,100
bexarotene + dasatinib,60.6,35.3,80.5,82.8,26.3,86.2
dasatinib + tamatinib,39.5,17.3,53.1,72.5,63.2,73.7

From a melanoma drug combination screen (doi:10.1371/journal.pone.0140310); values rounded.